The values that follow come from publication PMC6802197.

For at least one entry, the source does not settle the construct or the ends of the probe. At least one verdict rests on a figure or table, not on a statement of the authors.

Series [1] has as its target PFV integrase (intasome tetramer), WT (Prototype foamy virus) (UniProt P14350). Put plainly: size-exclusion chromatography (intasome assembly). As to conditions: Zn2+; Intasome 10 nM (bulk gel kinetics 25 nM), 37 C for AFM; Mg2+ reaction buffer (apparently 125 mM NaOAc, 5 mM Mg(OAc)2, 25 mM Tris-HCl pH 7.4); recombinant protein; protein details: His tag removed with HRV3C protease. Background: SEC sorts molecules by how far they enter the pores of the column.

Series [2] shares this target. Put plainly: native gel electrophoresis. As to conditions: Atto532-labeled intasome reacted with supercoiled pBR322; Intasome 10 nM (bulk gel kinetics 25 nM), 37 C for AFM; Mg2+ reaction buffer (apparently 125 mM NaOAc, 5 mM Mg(OAc)2, 25 mM Tris-HCl pH 7.4); recombinant protein; protein details: His tag removed with HRV3C protease; label: 5'-Atto532 on S1.

For the sequence “TGCGAAATTCCATGACA / ATTGTCATGGAATTTCGCA [3'-processed viral DNA end mimetic]”, the binding result in series [1] is “binds”. In the case of “TGCGAAATTCCATGACA / ATTGTCATGGAATTTCGCA [Atto532 viral DNA end mimetic]”, the binding result in series [2] is on record as “binds”.
